# Screening data, single-dose tests

Amino acid sequences for entries named in this document (tags omitted). Residues count along the entry.
UniProt P9WFT3, whole entry: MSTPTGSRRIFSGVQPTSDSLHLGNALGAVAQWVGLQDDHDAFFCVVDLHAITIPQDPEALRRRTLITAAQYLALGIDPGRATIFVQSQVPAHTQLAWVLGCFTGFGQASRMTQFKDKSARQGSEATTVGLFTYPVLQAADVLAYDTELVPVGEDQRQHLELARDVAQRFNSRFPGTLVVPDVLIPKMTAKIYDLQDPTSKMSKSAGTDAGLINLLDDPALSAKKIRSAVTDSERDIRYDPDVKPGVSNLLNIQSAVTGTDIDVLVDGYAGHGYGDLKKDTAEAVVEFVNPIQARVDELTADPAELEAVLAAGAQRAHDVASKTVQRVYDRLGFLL
UniProt P9WPC5, whole entry: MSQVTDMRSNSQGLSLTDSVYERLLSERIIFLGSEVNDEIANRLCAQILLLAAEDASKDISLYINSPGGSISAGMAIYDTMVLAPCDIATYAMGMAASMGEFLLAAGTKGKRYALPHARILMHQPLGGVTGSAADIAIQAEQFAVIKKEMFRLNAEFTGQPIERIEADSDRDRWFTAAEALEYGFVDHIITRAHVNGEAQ
UniProt P9WPC3, whole entry partner: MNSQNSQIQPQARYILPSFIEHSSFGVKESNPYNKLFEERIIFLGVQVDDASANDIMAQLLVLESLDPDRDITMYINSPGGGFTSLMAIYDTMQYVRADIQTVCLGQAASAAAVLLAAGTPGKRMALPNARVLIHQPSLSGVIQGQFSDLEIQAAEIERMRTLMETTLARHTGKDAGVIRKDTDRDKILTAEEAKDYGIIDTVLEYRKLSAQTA
UniProt Q8IDJ8, 1-583: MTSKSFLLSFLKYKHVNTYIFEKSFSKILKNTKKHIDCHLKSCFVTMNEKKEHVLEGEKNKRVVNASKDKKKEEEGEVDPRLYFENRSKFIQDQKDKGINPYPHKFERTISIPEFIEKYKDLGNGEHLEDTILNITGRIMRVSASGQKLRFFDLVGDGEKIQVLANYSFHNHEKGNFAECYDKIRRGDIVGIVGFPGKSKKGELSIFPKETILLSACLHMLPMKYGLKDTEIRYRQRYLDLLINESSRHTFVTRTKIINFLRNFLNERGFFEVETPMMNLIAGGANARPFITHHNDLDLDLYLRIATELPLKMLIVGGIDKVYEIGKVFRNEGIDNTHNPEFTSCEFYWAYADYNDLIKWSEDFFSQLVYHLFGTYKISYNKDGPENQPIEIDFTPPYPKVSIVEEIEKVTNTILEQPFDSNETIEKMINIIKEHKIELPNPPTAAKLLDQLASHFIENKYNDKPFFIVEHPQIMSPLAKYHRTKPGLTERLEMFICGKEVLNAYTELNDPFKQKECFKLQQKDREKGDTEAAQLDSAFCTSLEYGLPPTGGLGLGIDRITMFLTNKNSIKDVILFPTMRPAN
UniProt P9WNZ1, whole entry: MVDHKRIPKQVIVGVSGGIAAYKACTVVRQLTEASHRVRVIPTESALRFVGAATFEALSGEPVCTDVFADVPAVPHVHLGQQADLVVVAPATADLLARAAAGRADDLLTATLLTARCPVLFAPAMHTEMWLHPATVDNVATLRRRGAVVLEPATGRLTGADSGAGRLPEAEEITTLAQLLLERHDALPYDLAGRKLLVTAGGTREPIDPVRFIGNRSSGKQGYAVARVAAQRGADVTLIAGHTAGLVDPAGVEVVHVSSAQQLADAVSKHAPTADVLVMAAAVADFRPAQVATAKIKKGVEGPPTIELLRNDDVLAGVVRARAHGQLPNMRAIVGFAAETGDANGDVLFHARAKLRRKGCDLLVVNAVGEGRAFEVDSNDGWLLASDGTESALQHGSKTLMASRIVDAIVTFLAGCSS

Data taken from ChEMBL document CHEMBL3988442, “University of Dundee, Small-Polar-MMV Screening Library” (2021).

MtTrpRS: 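Tryptophan-tRNA ligase, Mycobacterium tuberculosis (UniProt P9WFT3). Enzyme assay of tryptophanyl-tRNA synthetase; the read-out is not stated. Concentration: 10 µM. Direction is not recorded; retested compounds ran higher, which suggests that high means inhibition. Size under these conditions: about 65,000 compounds, about 64 of them at 50% or above in at least one test.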
ClpP1P2: 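Protease assay of ClpP1P2, read by the AMC dye that it sets free. Target: ClpP1P2, Mycobacterium tuberculosis (UniProt P9WPC5 and UniProt P9WPC3). Compounds at 50 µM. Higher reads as stronger inhibition, judged from the few compounds that gave an IC50. Most other retested compounds had strongly negative values. Size under these conditions: about 69,000 compounds, about 10 of them at 50% or above in at least one test.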
Leishmania in macrophages: 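Cell assay of Leishmania donovani living inside macrophages; the read-out is not stated. Concentration: 30 µM. Direction is inferred from retests: higher values go with stronger inhibition. Size under these conditions: about 69,000 compounds, about 1,000 of them at 50% or above in at least one test.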
PfKRS1: 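Enzyme assay of the cytosolic lysyl-tRNA synthetase in 384-well plates, read by luminescence. Target: Lysine-tRNA ligase, Plasmodium falciparum 3D7 (UniProt Q8IDJ8). Tested at 30 µM. Direction is inferred from only a few compounds that gave an IC50; most scored high, so higher reads as stronger inhibition. About 69,000 compounds were tested under these conditions; 0.071% (about 49) showed 50% or more at least once.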
CoaBC: 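Coenzyme A biosynthesis protein CoaBC, Mycobacterium tuberculosis (UniProt P9WNZ1). Enzyme assay of CoaBC with a phosphate dye (Biomol Green) read at 650 nm. Concentration: 30 µM. Higher reads as stronger inhibition, judged from the few compounds that gave an IC50. Most strong results did not repeat in a second test. Size under these conditions: about 67,000 compounds, about 40 of them at 50% or above in at least one test.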

The filed quantity is “Percent Effect” (%).
The record does not define 0% and 100%; most values in the screen are far below 50% and negative numbers occur (in some assays of this library far below -100).
Compounds were drawn at random from those tested, without regard to their results.
Two or more numbers in one place are separate tests of the same structure; such repeats can differ widely.
A dash means the value is not listed here; it may have been measured.

Compound	MtTrpRS	ClpP1P2	Leishmania in macrophages	PfKRS1	CoaBC
Cc1ccc(N2CCN(C3CCc4ccccc4C3)CC2)nn1 (configuration not stated)	2.523%	8.198%	21.17%	0.4383%	10.56%
CCN(CC)C(=O)CCNC(=O)N1CCC(c2ccccc2)C1 (configuration not stated)	2.399%	-6.784%	15.14%	-1.341%	3.198%
N#Cc1cccc(S(=O)(=O)NC(=O)COC2CCCC2)c1	3.437%	13.05%	26%	1.032%	2.651%
O=C(O)C(F)(F)F.[H][C@@]12CCN(C3CCOCC3)[C@]1([H])CCC(=O)N2Cc1csc(C)n1	-	-	32.33%	-	-
Cc1n[nH]c(C)c1CNCC(O)c1cccc(Cl)c1.Cl (configuration not stated)	-	-	16.16%	-	-
CC(C)(C)c1ncc(C(=O)NC(C(N)=O)c2ccccc2)s1 (configuration not stated)	10.05%	-22.71%	-6.518%	-0.7631%	0.6386%
COCC1CN(Cc2ccoc2)Cc2nnn(C)c21 (configuration not stated)	-2.092%	3.664%	-	6.146%	-9.244%
[H][C@@]12CC(=O)N(Cc3csc(C)n3)[C@@]1([H])CCN2C(=O)C1CCOCC1	-	-	16.09%	-	-
O=C(c1ccccn1)N1CC[C@H]2[C@H]1CCN2S(=O)(=O)C1CC1	3.171%	6.135%	-	-2.066%	8.497%
COc1cccc(-c2cnc3n2CCC32CCN(C(C)=O)CC2)c1	-1.453%	-10.63%	10.53%	2.349%	-
CN(C)CCO[C@H]1CN(C(=O)c2cccs2)[C@@H]2COC[C@H]12	3.836%	10.73%	-	3.067%	3.782%
O=C(c1ccc(-n2ccnn2)cc1)N(CC1CC1)c1cccnc1	-1.125%	-8.402%	-2.277%	2.639%	-0.3241%
Cc1nc(C2CCCN2CC(=O)NCCOc2ccccc2)no1 (configuration not stated)	0.7862%	-1.798%	-9.808%	1.273%	-0.5319%
Cn1nc(Cn2cccn2)c2c1CN(Cc1ccoc1)C2	1.26%	-3.86%	-	5.669%	-
O=C(O)C(F)(F)F.[H][C@@]12C[C@H](C(=O)NCC(C)C)[C@@]([H])(CN(CCC(C)C)C1)O2	-	-	-7.441%	-	-
O=S(=O)(NCCn1ccc(-c2ccncc2)n1)C1CC1	-4.022%	-12.04%	33.82%	4.721%	-1.882%
CC(=O)N1CCN(CC=C(C)C)CC1	-4.025%	1.001%	5.112%	1.428%	4.911%
CCN1CCN(C(=O)c2cc(NC(=O)c3ccccc3)n(C)n2)CC1	1.152%	17.99%	24.88%	2.869%	1.699%
Cc1cc(C)n(CC(=O)N2CCCC2c2cc3cccnc3[nH]2)n1 (configuration not stated)	-5.644%	-15.37%	27.04%	0.8011%	-3.804%
CNc1cc(CCNS(=O)(=O)c2ccccc2)nc(-c2ccccn2)n1	-5.145%	-13.98%	41.79%	1.259%	3.699%
CC(C)c1ccccc1NC(=O)N1C[C@@H]2CC[C@H](C1)N(C)C2=O	3.207%	-4.663%	-	1.917%	5.521%
COCCN1CCN(Cc2ccncc2)[C@H]2CS(=O)(=O)C[C@H]21	-0.919%	-9.746%	-	3.134%	11.4%
O=C(O)C(F)(F)F.[H][C@@]12CCN(C3CCCC3)C[C@]1(C(=O)NCc1cnc(C)cn1)CCO2	-	-	20.98%	-	-
CC(CC1CC1)NCCCN1CCCN(C)CC1 (configuration not stated)	-3.885%	9.568%	4.875% and 19.76%	2.275%	0%
CCc1cnc(NCC(c2ccncc2)N2CCOCC2)nc1 (configuration not stated)	4.311%	-4.712%	-5.759%	1.822%	5.857%
COCCN1CCC(c2cncc(-c3cccc(Cl)c3)n2)CC1	-	10.48%	22.2%	-0.8443%	-1.363%
O=C(O)C(F)(F)F.c1ccc(CN2CCc3ncnc(-c4ccoc4)c3CC2)nc1	-	-	-15.26%	-	-
CN1CC(=O)N(c2cnn(C)c2)CC12CCN(Cc1cccnc1)C2.O=C(O)C(F)(F)F.O=C(O)C(F)(F)F.O=C(O)C(F)(F)F (configuration not stated)	-	-	20.16%	-	-
CCOCCN1CCN(CCc2ccc3c(c2)CCO3)CC1	-5.097%	13.45%	42.02%	-2.573%	-14.06%
CCc1cnc(C)nc1NCCNc1nc(C)cc(=O)[nH]1	2.812%	1.249%	-5.648%	2.012%	9.328%
Cc1cc(O)c(OCC(=O)/N=c2\[nH]c(C)cs2)cn1	-5.153%	-8.288%	-5.398%	5.429%	2.911%
NC(=O)CCn1cc(CNCc2csc(N)n2)c2ccccc21	8.997%	-0.5081%	38.31%	3.584%	-4.989%
Cc1nnc2n1CCN(Cc1c(Cl)ccc3cccnc13)C2	-1.806%	-9.203%	-37.59%	-1.464%	1.707%
CC(=O)Nc1nc(C(=O)NCc2ccc(N3CCOCC3)nc2)cs1	27.22%	-3.158%	2.082%	-4.662%	-2.417%
Cc1nn(C)c2c(N3CCN(C(=O)C4CCCCC4)CC3)ncnc12	3.497%	8.329%	-69.81%	-3.715%	-1.386%
Cc1cnn(C2CCCN(C(=O)c3ccc(NC4CC4)nc3)C2)c1 (configuration not stated)	1.85%	-2.205%	10.51%	-0.2223%	3.226%
CCCSc1ncc(-c2nccn2CCO)cn1	0.7524%	-20.37%	1.146%	4.519%	-0.9756%
Cc1cnn(CC2CCCCN2Cc2cnc(C)s2)c1 (configuration not stated)	-6.24%	-22.04%	15.86%	0.7338%	5.115%
N#Cc1nccnc1NC1CCN(c2c(F)cccc2F)C1 (configuration not stated)	1.283%	-4.892%	9.012%	8.111%	-0.1626%
Cc1ccc(CC(=O)Nc2ccc(CS(C)(=O)=O)c(F)c2)cc1	-0.2329%	-1.716%	-2.518%	-0.2258%	-2.857%
CCN(C)[C@H]1CN(C(=O)c2cccc(N3CCS(=O)(=O)CC3)c2)C[C@@H]1O	2.415%	-10.52%	-18.69%	4.002%	-6.71%
CN1C[C@@H](N)C[C@H]1C(=O)N1CCC(Cc2ccc(F)cc2)CC1	9.692%	-12.72%	8.715%	3.155%	-18.68%
CCOc1ccnc(N[C@@H](Cc2ccccc2)C(N)=O)n1	-1.805%	-12.21%	-4.094%	2.69%	4.713%
CC1(C)CC(N2Cc3nc(N4CCOCC4)ncc3C2=O)CC(C)(C)N1	-0.58%	-3.298%	18.19%	-4.246%	-8.182%
Cc1nn(C)c(C)c1CNCc1ccc(N2CCOCC2)nc1.Cl	-	-	27.91%	-	-
O=C(CCc1ccccc1Cl)NS(=O)(=O)c1ccc2c(c1)OCCO2	-6.717%	-19.89%	-0.2442%	0.4737%	1.394%
NC(=O)c1csc(N2CCCC(c3nc4ccccc4[nH]3)C2)n1 (configuration not stated)	1.058%	-7.3%	-8.033%	13.84%	12.31%
O=C(O)c1cc(/C=C/c2ccccc2)ncn1	0.7965%	-3.26%	8.161%	1.921%	7.025%
Cn1c(Nc2ccc(F)cc2)c(C#N)c(=O)n(C)c1=O	-5.365%	9.698%	12.06%	5.128%	-9.013%
FC(F)(F)C1CCCn2c(CNCc3ccsc3)nnc21 (configuration not stated)	-5.506%	3.712%	9.324%	7.119%	-8.036%
Cc1ccc(S(C)(=O)=O)cc1C(=O)N(C)Cc1ccco1	-3.616%	-5.239%	26.66%	-0.6649%	-0.9615%
COCCc1ncc(CNC2(c3ccc(Cl)cc3)CC2)cn1	-2.029%	5.762%	29.05% and 26.7%	-0.3763%	1.703%

6 of the entries, repeated:

O=C(O)C(F)(F)F.[H][C@@]12CCN(C3CCOCC3)[C@]1([H])CCC(=O)N2Cc1csc(C)n1 gave Leishmania in macrophages: 32.33%.
CNc1cc(CCNS(=O)(=O)c2ccccc2)nc(-c2ccccn2)n1 gave MtTrpRS: -5.145%; ClpP1P2: -13.98%; Leishmania in macrophages: 41.79%; PfKRS1: 1.259%; CoaBC: 3.699%.
O=S(=O)(NCCn1ccc(-c2ccncc2)n1)C1CC1 gave MtTrpRS: -4.022%; ClpP1P2: -12.04%; Leishmania in macrophages: 33.82%; PfKRS1: 4.721%; CoaBC: -1.882%.
CCN(C)[C@H]1CN(C(=O)c2cccc(N3CCS(=O)(=O)CC3)c2)C[C@@H]1O gave MtTrpRS: 2.415%; ClpP1P2: -10.52%; Leishmania in macrophages: -18.69%; PfKRS1: 4.002%; CoaBC: -6.71%.
N#Cc1nccnc1NC1CCN(c2c(F)cccc2F)C1 (configuration not stated) gave MtTrpRS: 1.283%; ClpP1P2: -4.892%; Leishmania in macrophages: 9.012%; PfKRS1: 8.111%; CoaBC: -0.1626%.
[H][C@@]12CC(=O)N(Cc3csc(C)n3)[C@@]1([H])CCN2C(=O)C1CCOCC1 gave Leishmania in macrophages: 16.09%.